{"source": "patent US8530492B2", "about": "“Oligomer-protein tyrosine kinase inhibitor conjugates” (Nektar Therapeutics, priority 2009, dated 2013)", "origin": "cited, not measured here", "details": "control compounds of the Caco-2 assay; cited from earlier work"}
{"smiles": "CC(C)NCC(O)COc1ccc(CC(N)=O)cc1", "note": "(stereo not shown) [atenolol]", "values": [{"measurement": "human absorption", "result": "approximately 50%"}]}
